# Measurements reported in patent US20130224754A1, “METHOD FOR THE SELECTION OF COMPOUNDS USEFUL FOR THE TREATMENT OF PSYCHIATRIC AND NEURODEGENERATIVE DISEASES” (UNIVERSITA' DEGLI STUDI DI TRIESTE, priority 2010, published 2013).
# At least one structure is not confirmed: it was looked up by name or label, or the drawing left a doubt.
# Tested on: pN1-exon6-Fluc-3′UTR long construct
# Assay: Inhibition of KCl-induced translation of the ex6-Fluc-3′UTRlong construct
# Type: cell-based, rat
# Conditions: 30 min pre-treatment prior 3 h 20 mM KCl; rapamycin 20 nM, U0126 50 μM, KN62 20 μM, GF 50 nM, Aurora A inhibitor 10 μM, PP2 20 μM
# Source text: The present invention can be used not only to identify compounds able to increase BDNF translation, but also to screen for potential inhibitors of BDNF protein production. To this aim a series of vectors were constructed which recapitulate the physiological regulation of BDNF translation in that the firefly luciferase gene was flanked both by 5′UTR regions as well as 3′UTR. These constructs included:
# Inhibitors of 5′UTR regulation are: rapamycin (rap)=mTOR inhibitor (Takei, Inamura et al. 2004); U0126=MEK inhibitor (Kanhema, Dagestad et al. 2006); GF=PKC inhibitor (Heikkila, Jalava et al. 1993).
# Inhibitors of 3′UTR regulation: KN62=CaMKII inhibitor (Lu, Hidaka et al. 1996); AuA=Aurora A inhibitor (Soncini, Carpinelli et al. 2006) and PP2=Src tyrosine kinase inhibitor (Perkinton, Sihra et al. 1999).
# Aurora kinase A inhibitor (PHA-680632) was a gift from Nerviano Medical Sciences S.r.l. […]
smiles,measurement,value
CO[C@H]1C[C@@H]2CC[C@@H](C)[C@@](O)(O2)C(=O)C(=O)N2CCCC[C@H]2C(=O)O[C@H]([C@H](C)C[C@@H]2CC[C@@H](O)[C@H](OC)C2)CC(=O)[C@H](C)/C=C(\C)[C@@H](O)[C@@H](OC)C(=O)[C@H](C)C[C@H](C)/C=C/C=C/C=C/1C [rapamycin],prevention of KCl-induced increase in translation of pN1-exon6-Fluc-3′UTR long,completely prevents
